PubChem BioAssay AID504791 – Drosophila RNAi Screening Center – 2011
Test: 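Genes of the fly required for silencing by miRNA, siRNA or endo-siRNA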 (primary screen). System: Drosophila S2-derived reporter cells. Reagent: long dsRNA against Drosophila genes, about 150-250 ng dsRNA per well (siRNA assay); about 80-120 ng (miRNA assay). Time to read-out: about 5 days (siRNA assay); about 4 days (miRNA assay). Treatment: copper sulfate induction of reporters: 25 µM (siRNA assay); 200 mM stated (miRNA assay), 1-2 days before reading. Measured: 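Per-well ratio of Renilla over firefly light, expressed relative to that plate's average ratio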. Units: stable assay Renilla, run 1 in luminescence; stable assay firefly, run 1 in luminescence. Active means: 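a well was a first-pass pick when its plate-scaled ratio rose above 1.5 (siRNA assay) or 1.6 (miRNA assay), or dropped below 0.6; a gene counted only if two separate dsRNAs agreed on retest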.
The screen tested about 23,000 reagents; this is a random part of those with a known target gene and a result. Over the whole deposit, 199 (0.86%) were called active. 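Plate-scaled ratios behind the calls are not deposited; printed light signals are raw; many rows marked increased or decreased are still called inactive.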 Unmarked entries are inactive. A plus sign joins genes that one reagent is predicted to hit. Not given: the direction of the score.

pck (pickel) [DRSC18565] → stable assay Renilla, run 1: 8388; stable assay firefly, run 1: 4.72e5
CG14130 [DRSC10134] → stable assay Renilla, run 1: 7417; stable assay firefly, run 1: 4.13e5
CAH15 (Carbonic anhydrase 15) [DRSC04534] → stable assay Renilla, run 1: 6766; stable assay firefly, run 1: 4.55e5
SP2353 [DRSC07545] → stable assay Renilla, run 1: 5415; stable assay firefly, run 1: 2.61e5

Part of the list above, showing only “stable assay Renilla, run 1”:
CAH15 (Carbonic anhydrase 15) [DRSC04534]: 6766
SP2353 [DRSC07545]: 5415

More entries:
Caper [DRSC02137] → stable assay Renilla, run 1: 21445; stable assay firefly, run 1: 1.14e6
CG16976 (retired record) [DRSC08262] → stable assay Renilla, run 1: 9823; stable assay firefly, run 1: 4.49e5
CG16976 (retired record) [DRSC08499] → stable assay Renilla, run 1: 6275; stable assay firefly, run 1: 3.33e5
CG11656 [DRSC14338] → stable assay Renilla, run 1: 7299; stable assay firefly, run 1: 5.12e5
sli (slit) [DRSC07684] → stable assay Renilla, run 1: 5451; stable assay firefly, run 1: 3.72e5
CG10097 + CG10096 [DRSC14189] → stable assay Renilla, run 1: 8442; stable assay firefly, run 1: 4.22e5
CG10097 + CG10096 [DRSC14190] → stable assay Renilla, run 1: 6903; stable assay firefly, run 1: 4.79e5
Pgcl (Pepsinogen C-like) [DRSC18815] → stable assay Renilla, run 1: 5067; stable assay firefly, run 1: 4.72e5
